Measured values taken from article PMC12007496.
Results are given in words; binding and its absence hold for the method and conditions named. Binding seen in cells or lysates may run through a third protein. Some results given as binding are weak or reduced against the parent protein; the word gives no strength.

Amino acid sequences for entries named in this document (tags omitted). Residues count along the entry.
UniProt P05622, residues 32-1098: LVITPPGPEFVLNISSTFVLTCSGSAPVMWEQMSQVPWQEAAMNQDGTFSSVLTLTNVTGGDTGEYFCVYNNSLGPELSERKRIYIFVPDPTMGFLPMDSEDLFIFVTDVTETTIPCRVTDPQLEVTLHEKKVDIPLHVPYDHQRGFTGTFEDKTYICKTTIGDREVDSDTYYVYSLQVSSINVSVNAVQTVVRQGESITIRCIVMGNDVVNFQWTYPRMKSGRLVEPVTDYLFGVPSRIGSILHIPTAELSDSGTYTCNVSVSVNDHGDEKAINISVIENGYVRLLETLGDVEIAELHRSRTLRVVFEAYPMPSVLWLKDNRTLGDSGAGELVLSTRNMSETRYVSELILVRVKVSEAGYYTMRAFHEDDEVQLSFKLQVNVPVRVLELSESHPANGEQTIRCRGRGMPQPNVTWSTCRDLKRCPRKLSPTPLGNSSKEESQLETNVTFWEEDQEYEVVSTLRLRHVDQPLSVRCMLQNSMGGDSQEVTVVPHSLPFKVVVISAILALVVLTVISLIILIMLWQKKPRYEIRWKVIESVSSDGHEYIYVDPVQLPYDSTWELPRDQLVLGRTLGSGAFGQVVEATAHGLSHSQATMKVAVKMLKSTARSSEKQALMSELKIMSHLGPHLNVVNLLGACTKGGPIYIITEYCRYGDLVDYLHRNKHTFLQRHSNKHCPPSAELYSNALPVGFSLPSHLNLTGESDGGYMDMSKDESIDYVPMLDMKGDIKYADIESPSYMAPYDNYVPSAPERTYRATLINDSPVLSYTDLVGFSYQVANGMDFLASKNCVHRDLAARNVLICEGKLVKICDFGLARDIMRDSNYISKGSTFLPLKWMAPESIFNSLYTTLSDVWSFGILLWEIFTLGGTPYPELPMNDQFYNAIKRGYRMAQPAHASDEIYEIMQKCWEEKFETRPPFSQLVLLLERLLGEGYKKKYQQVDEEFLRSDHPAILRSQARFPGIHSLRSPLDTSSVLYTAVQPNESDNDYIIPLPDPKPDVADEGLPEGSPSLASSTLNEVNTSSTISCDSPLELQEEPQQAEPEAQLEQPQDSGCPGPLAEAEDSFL
UniProt P46935: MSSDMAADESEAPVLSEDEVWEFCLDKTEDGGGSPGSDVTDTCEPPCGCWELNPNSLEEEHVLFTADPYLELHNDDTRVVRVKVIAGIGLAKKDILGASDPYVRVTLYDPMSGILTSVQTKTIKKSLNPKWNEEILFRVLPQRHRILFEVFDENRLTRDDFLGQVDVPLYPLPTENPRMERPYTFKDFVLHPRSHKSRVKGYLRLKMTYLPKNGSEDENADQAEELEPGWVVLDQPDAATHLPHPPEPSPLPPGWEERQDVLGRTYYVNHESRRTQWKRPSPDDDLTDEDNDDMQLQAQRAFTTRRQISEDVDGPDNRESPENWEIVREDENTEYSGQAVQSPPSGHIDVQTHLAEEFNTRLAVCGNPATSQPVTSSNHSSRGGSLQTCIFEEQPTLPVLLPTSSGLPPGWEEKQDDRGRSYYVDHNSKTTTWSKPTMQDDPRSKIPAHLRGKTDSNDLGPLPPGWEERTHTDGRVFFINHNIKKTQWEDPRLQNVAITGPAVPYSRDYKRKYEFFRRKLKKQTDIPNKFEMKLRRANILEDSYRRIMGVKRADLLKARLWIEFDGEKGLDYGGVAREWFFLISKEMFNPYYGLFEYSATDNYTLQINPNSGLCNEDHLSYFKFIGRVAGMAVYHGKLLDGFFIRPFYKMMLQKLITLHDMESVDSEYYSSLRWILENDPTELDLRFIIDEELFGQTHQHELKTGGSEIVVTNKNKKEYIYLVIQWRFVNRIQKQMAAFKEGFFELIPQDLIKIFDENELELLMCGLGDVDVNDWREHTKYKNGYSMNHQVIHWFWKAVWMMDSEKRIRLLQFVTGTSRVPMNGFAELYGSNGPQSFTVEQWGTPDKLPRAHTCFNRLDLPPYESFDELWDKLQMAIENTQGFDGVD

Molecular target: Platelet-derived growth factor receptor (PDGFR)β (mouse (endogenous in mouse VSMCs)) (UniProt P05622)
Assay: co-IP; anti-PDGFRβ antibody with protein A/G beads in lysates of mouse VSMCs (150 mM NaCl, 50 mM Tris-HCl pH 8.0, 1.0% NP-40, 0.5% sodium deoxycholate, 0.1% SDS), overnight at 4 °C, western blot; cells with control or CDCP1 siRNA, with or without PDGF-BB stimulation

Substance: NEDD4 (from UniProt P46935 1-887) (enzyme)
- binding: binds
